From PubChem BioAssay AID330 (DTP/NCI, 2004)
The list does not hold the whole screen: it gathers tests that were run many times, whatever their T/C, doses with no T/C, and many T/C values between a quarter and a half above the control. Other doses and runs of a compound stand elsewhere. T/C: endpoint of the treated group in % of that of the vehicle group. Some entries give survivors of the animals treated and no T/C: the source files T/C as zero there, which appears to mark a toxic dose or a test without result, not a measured value. Some doses without a T/C left all or most animals alive at the check, yet need not have been tolerated: survival well below the control is almost never listed, so the zero probably covers shortened survival too. Survivors were counted at the toxicity check, usually on the fifth day, unless a day is given; later deaths do not show. Schedules are NCI's codes, read here as Q, the interval in days (D) or hours (H), X, the number of doses. Some molecules as drawn cover several salts, stereoisomers or complexes of the source; a dose is that of the sample tested. Some entries were tested several times; their values stand side by side, smallest first. For survival time, the PubChem record calls one and a half times the control and up active, and a quarter to a half above the control has no call in these data; cut-offs in other NCI protocols can differ. Some T/C values carry the count of animals alive at the toxicity check (mostly the fifth day); where none is given, no animal had died by that day.

Test system: P388 leukemia ip, CD2F1 mice, survival T/C
Experiment: NCI In Vivo Anticancer Drug Screen. Data for tumor model P388 Leukemia (intraperitoneal) in CD2F1 (CDF1) mice
Settings: T/C endpoint: median survival time, higher T/C = longer survival
[1] = dose: 0.06 mg/kg/injection, schedule: Q01DX009 (ip), vehicle: DMSO
[2] = dose: 0.25 mg/kg/injection, schedule: Q01DX009 (ip), vehicle: DMSO
[3] = dose: 0.5 mg/kg/injection, schedule: Q01DX009 (ip), vehicle: DMSO
[4] = dose: 1.0 mg/kg/injection, schedule: Q01DX009 (ip), vehicle: DMSO
[5] = dose: 2.0 mg/kg/injection, schedule: Q01DX009 (ip), vehicle: DMSO
[6] = dose: 2.0 mg/kg/injection, schedule: Q01DX009 (ip), vehicle: other
[7] = dose: 3.0 mg/kg/injection, schedule: Q01DX009 (ip), vehicle: saline with Tween-80
[8] = dose: 4.0 mg/kg/injection, schedule: Q01DX009 (ip), vehicle: other
[9] = dose: 6.0 mg/kg/injection, schedule: Q01DX009 (ip), vehicle: saline with Tween-80
[10] = dose: 200.0 mg/kg/injection, schedule: Q01DX005 (ip), vehicle: saline with Tween-80
[11] = dose: 200.0 mg/kg/injection, schedule: Q01DX005 (ip), vehicle: Klucel (hydroxypropylcellulose) (HPC)
[12] = dose: 200.0 mg/kg/injection, schedule: Q01DX009 (ip), vehicle: saline with Tween-80
[13] = dose: 6.25 mg/kg/injection, schedule: Q01DX005 (ip), vehicle: Klucel (hydroxypropylcellulose) (HPC)
[14] = dose: 50.0 mg/kg/injection, schedule: Q01DX005 (ip), vehicle: Klucel (hydroxypropylcellulose) (HPC)
[15] = dose: 100.0 mg/kg/injection, schedule: Q01DX005 (ip), vehicle: Klucel (hydroxypropylcellulose) (HPC)

Compound: C/C=C/C=C/c1cc2cc3c(c(O)c2c(=O)[nH]1)C1(CC3)C(O)=c2c(=O)c3c(=O)cc(OC)c(=O)c=3c(=O)c2=C1O (stereo unspecified)
- T/C [1]: 106, 122, 151 % of control
- survivor count [1]: 5 of 6
- T/C (dose: 0.12 mg/kg/injection, schedule: Q01DX009 (ip), vehicle: DMSO): 146 % of control
- survivor count (dose: 0.13 mg/kg/injection, schedule: Q01DX009 (ip), vehicle: DMSO): 6 of 6
- T/C [2]: 97, 104 [5 of 6 alive], 134 % of control
- survivor count [2]: 2 of 6
- T/C [3]: 91 and 200 % of control
- survivor count [3]: 0 of 6, 5 of 6, 6 of 6
- T/C [4]: 100 and 166 % of control
- survivor count [4]: 0 of 6, 1 of 6, 5 of 6
- survivor count (dose: 1.0 mg/kg/injection, schedule: Q01DX009 (ip), vehicle: other): 6 of 6
- T/C [5]: 129 % of control
- survivor count [5]: 0 of 6 and 1 of 6
- T/C [6]: 141 % of control
- survivor count [6]: 3 of 6
- T/C (dose: 3.0 mg/kg/injection, schedule: Q01DX009 (ip), vehicle: Klucel (hydroxypropylcellulose) (HPC)): 137 % of control
- T/C [7]: 138 % of control
- survivor count (dose: 4.0 mg/kg/injection, schedule: Q01DX009 (ip), vehicle: DMSO): 0 of 6
- T/C [8]: 138 % of control
- survivor count [8]: 0 of 6
- T/C [9]: 144 % of control
- survivor count (dose: 8.0 mg/kg/injection, schedule: Q01DX009 (ip), vehicle: DMSO): 0 of 6
- survivor count (dose: 24.0 mg/kg/injection, schedule: Q01DX009 (ip), vehicle: saline with Tween-80): 4 of 6
- T/C (dose: 500.0 micrograms/kg/injection, schedule: Q01DX009 (ip), vehicle: water): 132 % of control
- T/C (dose: 2000.0 micrograms/kg/injection, schedule: Q01DX009 (ip), vehicle: other): 133 % of control
- survivor count (dose: 2000.0 micrograms/kg/injection, schedule: Q01DX009 (ip), vehicle: water): 6 of 6

Compound: NC(N)=NCCCSC(=O)C1CCCCC1
- survivor count [10]: 0 of 5

Compound: CN(C)CCC[N+](C)(C)Cc1ccc(C[N+](C)(C)CCC[N+](C)(C)Cc2ccc(CCl)cc2)cc1
- survivor count (dose: 50.0 mg/kg/injection, schedule: Q01DX009 (ip), vehicle: saline): 0 of 6
- survivor count (dose: 100.0 mg/kg/injection, schedule: Q01DX009 (ip), vehicle: saline): 0 of 6
- survivor count (dose: 200.0 mg/kg/injection, schedule: Q01DX009 (ip), vehicle: saline): 0 of 6

Compound: Cc1ccc(/[N+]([O-])=N/N2C(=O)c3ccccc3C2=O)cc1
- survivor count [11]: 2 of 6

Compound: CN1c2ccccc2S(=O)(=O)n2c(COc3ccccc3)nnc21
- survivor count (dose: 100.0 mg/kg/injection, schedule: Q01DX005 (ip), vehicle: saline with Tween-80): 6 of 6

Compound: CCCC[S][Sn]([CH2]CCC)([CH2]CCC)[S]CCCC
- T/C (dose: 0.75 mg/kg/injection, schedule: Q01DX009 (ip), vehicle: saline with Tween-80): 134 % of control
- T/C (dose: 1.5 mg/kg/injection, schedule: Q01DX009 (ip), vehicle: saline with Tween-80): 142 and 144 % of control
- survivor count [7]: 5 of 6
- survivor count [9]: 3 of 6
- survivor count (dose: 12.0 mg/kg/injection, schedule: Q01DX009 (ip), vehicle: saline with Tween-80): 1 of 6

Compound: C=CCN1CCCSC1=S
- survivor count (dose: 200.0 mg/kg/injection, schedule: Q01DX009 (ip), vehicle: Klucel (hydroxypropylcellulose) (HPC)): 0 of 6

Compound: FC(F)(F)c1cccc(N=c2ccn3ccccc3c2)c1
- survivor count (dose: 100.0 mg/kg/injection, schedule: Q01DX009 (ip), vehicle: saline with Tween-80): 1 of 6
- survivor count [12]: 0 of 6

Compound: COc1ccc2c(c1O)-c1cc(O)cc3c1[C@@H](C2)N(C)CC3
- survivor count [10]: 0 of 6

Compound: COC1/C=C/OC2(C)Oc3c(C)c(O)c4c(O)c(c(/C=N/N5CC(C)(C)N(Cc6ccccc6)CC5(C)C)c(O)c4c3C2=O)NC(=O)C(C)=C/C=C/C(C)C(O)C(C)C(O)C(C)C(OC(C)=O)C1C (stereo unspecified)
- survivor count [12]: 6 of 6

Compound: C=C(C)C(=O)O[C@H]1[C@H]2[C@H](OC(=O)[C@H]2C)[C@H](O)[C@@H](C)[C@@H]2C=CC(=O)[C@]21C
- T/C (dose: 15.0 mg/kg/injection, schedule: Q01DX009 (ip), vehicle: saline with Tween-80): 130 % of control
- T/C (dose: 30.0 mg/kg/injection, schedule: Q01DX009 (ip), vehicle: saline with Tween-80): 140 % of control [5 of 6 alive]
- T/C (dose: 60.0 mg/kg/injection, schedule: Q01DX009 (ip), vehicle: saline with Tween-80): 130 % of control

Compound: CC1NC(=O)C(NC(=O)c2cnc3ccccc3n2)COC(=O)C(C(C)C)N(C)C(=O)C2CSSCC(C(=O)N(C)C(C(C)C)C(=O)OCC(NC(=O)c3cnc4ccccc4n3)C(=O)NC(C)C(=O)N2C)N(C)C1=O (stereo unspecified)
- T/C (dose: 12.5 micrograms/kg/injection, schedule: Q01DX009 (ip), vehicle: water): 132 % of control
- survivor count (dose: 200.0 micrograms/kg/injection, schedule: Q01DX009 (ip), vehicle: water): 5 of 6

Compound: O=C(CCSCCCl)Nc1c([N+](=O)[O-])cc([N+](=O)[O-])cc1S(=O)(=O)O
- T/C (dose: 12.5 mg/kg/injection, schedule: Q04DX003 (ip), vehicle: olive oil, sesame oil, peanut oil): 127 % of control
- T/C (dose: 50.0 mg/kg/injection, schedule: Q04DX003 (ip), vehicle: DMSO): 129 % of control
- T/C (dose: 50.0 mg/kg/injection, schedule: Q04DX003 (ip), vehicle: olive oil, sesame oil, peanut oil): 127 % of control
- T/C (dose: 100.0 mg/kg/injection, schedule: Q04DX003 (ip), vehicle: olive oil, sesame oil, peanut oil): 125 % of control
- T/C (dose: 150.0 mg/kg/injection, schedule: Q04DX003 (ip), vehicle: DMSO): 125 % of control
- T/C (dose: 200.0 mg/kg/injection, schedule: Q04DX003 (ip), vehicle: olive oil, sesame oil, peanut oil): 126 % of control [5 of 6 alive]
- survivor count (dose: 400.0 mg/kg/injection, schedule: Q04DX003 (ip), vehicle: olive oil, sesame oil, peanut oil): 1 of 6

Compound: O=[N+]([O-])c1ccc([Se]CCBr)c([N+](=O)[O-])c1
- survivor count (dose: 400.0 mg/kg/injection, schedule: Q04DX003 (ip), vehicle: Klucel (hydroxypropylcellulose) (HPC)): 0 of 6

Compound: COC(=O)C1=C(/C=C/C(C)=O)NC(C)=C(C(=O)OC(C)C)C1c1ccccc1Cl (stereo unspecified)
- T/C [11]: 134 % of control
- survivor count (dose: 400.0 mg/kg/injection, schedule: Q01DX005 (ip), vehicle: Klucel (hydroxypropylcellulose) (HPC)): 1 of 6

Compound: [Cl][Sn]([CH2][Sn]([Cl])([c]1ccccc1)[c]1ccccc1)([c]1ccccc1)[c]1ccccc1
- T/C (dose: 1.56 mg/kg/injection, schedule: Q01DX005 (ip), vehicle: Klucel (hydroxypropylcellulose) (HPC)): 133 % of control
- survivor count (dose: 3.12 mg/kg/injection, schedule: Q01DX005 (ip), vehicle: Klucel (hydroxypropylcellulose) (HPC)): 0 of 6 and 3 of 6
- T/C [13]: 126 % of control
- survivor count [13]: 0 of 6
- survivor count (dose: 12.5 mg/kg/injection, schedule: Q01DX005 (ip), vehicle: Klucel (hydroxypropylcellulose) (HPC)): 0 of 6
- survivor count [14]: 2 of 6
- survivor count [15]: 0 of 6
- survivor count [11]: 0 of 6

Compound: Cc1cccc(/C=N/Nc2ccc3ccccc3n2)n1
- survivor count [14]: 6 of 6
- survivor count [15]: 1 of 6
- survivor count [11]: 0 of 6

Compound: NCCCNCCCCNC(=O)C(O)NC(=O)CC(O)CCCCN=C(N)N (stereo unspecified)
- T/C (dose: 12.5 mg/kg/injection, schedule: Q01DX005 (ip), vehicle: saline): 145 % of control
- T/C (dose: 25.0 mg/kg/injection, schedule: Q01DX005 (ip), vehicle: saline): 142 % of control
- survivor count (dose: 200.0 mg/kg/injection, schedule: Q01DX005 (ip), vehicle: saline): 0 of 6
